# In publication PMC12117998 (Chembiochem, 2025):
# No end group written: not given here.
# Test system: not listed separately
# Experiment: general procedure: Fmoc solid-phase peptide synthesis; Rinkamide resin; oxyma/N,N'-diisopropylcarbodiimide; HATU/DIPEA (CF labelling)
# Conditions: whole synthesis, LC-MS with UV chromatograms, 10-60% ACN in 15 min
Substance,final purity (method not given) [%],crude purity (method not given) [%],purity (crude or final not stated) [%]
CF-GLRKRLRKFRNK-NH2,98,,
CF-GLRKRLRKFRNKDFDHHCKW-NH2,98,,
CF-GLRKRLRKFRNKDFDHHCPW-NH2,,93,
CF-GLRKRLRKFRNKEFDHHCPW-NH2,95,,
CF-GLRKRLRKFRNKGFDHHCKW-NH2,,87,
CF-GLRKRLRKFRNKKFDHHCPW-NH2,,91,
CF-GLRKRLRKFRNKKMDHHAPW-NH2,,87,
CF-GLRKRLRKFRNKKMDHHCPW-NH2,,87,
CF-GLRKRLRKFRNKRFDHHCPW-NH2,96,,
CF-GLRKRLRKFRNKRFDHHCVW-NH2,,96,
CF-GLRKRLRKFRNKRHDHHCFF-NH2,,98,
CF-GLRKRLRKFRNKRMDHHCPW-NH2,98,,
CF-GLRKRLRKFRNKRMDHHCVW-NH2,95,,
CF-GLRKRLRKFRNKRRDHHCRL-NH2,,96,
CF-GLRKRLRKFRNKRYDHHCPW-NH2,,91,
CF-GLRKRLRKFRNKRYDQHCLW-NH2,98,,

Substance,final purity (method not given) [%],crude purity (method not given) [%],purity (crude or final not stated) [%]
GLRKRLRKFRNK-NH2,,,98
GLRKRLRKFRNKDFDHHCKW-NH2,,,92
GLRKRLRKFRNKDFDHHCPW-NH2,,,94
GLRKRLRKFRNKEFDHHCPW-NH2,,,93
GLRKRLRKFRNKGFDHHCKW-NH2,,,93
GLRKRLRKFRNKKFDHHCPW-NH2,,,96
GLRKRLRKFRNKKMDHHAPW-NH2,,,97
GLRKRLRKFRNKKMDHHCPW-NH2,,,93
GLRKRLRKFRNKRFDHHCPW-NH2,,,96
GLRKRLRKFRNKRFDHHCVW-NH2,,,92
GLRKRLRKFRNKRHDHHCFF-NH2,,,94
GLRKRLRKFRNKRMDHHCPW-NH2,,,95
GLRKRLRKFRNKRMDHHCVW-NH2,,,93
GLRKRLRKFRNKRRDHHCRL-NH2,,,98
GLRKRLRKFRNKRYDHHCPW-NH2,,,92
GLRKRLRKFRNKRYDQHCLW-NH2,,,94

# Test system: HeLa cells
# Experiment: Co‐localization studies (confocal microscopy, PCC and MOC)
# Assay type: cell-based
# Conditions: 30 min, 5 μM CF‐DC‐2, LysoTracker Red DND‐99, mean ± SD of ≥37 cells, n = 2
# Description: HeLa cells (30,000–40,000) were seeded into an 8‐well ibidi. For lysosomal and lipid droplet analysis, cells were treated for 30 min with 5 μM of CF‐labeled peptide combined with either 100 nM LysoTracker Red DND‐99 (Invitrogen) or a 1:1000 solution of distyryl Bodipy lipid droplet stain synthesized and kindly provided by Engelhardt et al.^[ [67] ^] diluted in serum‐free media under standard growth conditions. For Golgi analysis, cells were treated for 2 h with 5 μM CF‐labeled peptide under standard growth conditions. For the last 30 min of the incubation period, 1:100 BODIPY TR ceramide complexed to bovine serum albumine (BSA) (Invitrogen) was directly diluted into the well and incubated for the last 30 min together with the peptide. For ER staining, CellLight ER‐RFP, BacMam 2.0 (Invitrogen), was added to the cells and incubated overnight under standard growth conditions. The next day, the cells were treated for 2 h with 5 μM CF‐labeled peptides as described earlier. After the peptide and stain incubation, cells were washed three to four times with serum‐free medium. Finally, complete medium was added, and cells were imaged on the Ultra‐View VoX Spinning Disk Confocal Microscope (Perkin Elmer) on a Plan‐Apo Tirf 60X oil objective (NA 1.49, Nikon) at 37 °C and 5% CO2. Images were cropped and processed using Fiji. Pearson and Manders’ Coefficients were calculated using the JaCoP analysis tool.^[ [68] ^] For Golgi analysis, no PCC or MOC was determined as the unedited images contained a strong background signal.
Substance,"Mander's overlap coefficient (MOC), lysosomes","Pearson correlation coefficient (PCC), lysosomes"
"GLRKRLRKFRNKKMDHHCPW-NH2 [DC‐2, CPP sC18* fused to the DHHC motif derived from ZDHHC2/3/6/7/15/16/20]",0.26 ± 0.14,0.48 ± 0.14

# Same assay, conditions: 30 min, 5 μM CF‐DC‐2, distyryl Bodipy lipid droplet stain, mean ± SD of ≥37 cells, n = 2
Substance,"Mander's overlap coefficient (MOC), lipid droplets","Pearson correlation coefficient (PCC), lipid droplets"
"GLRKRLRKFRNKKMDHHCPW-NH2 [DC‐2, CPP sC18* fused to the DHHC motif derived from ZDHHC2/3/6/7/15/16/20]",0.05 ± 0.05,0.19 ± 0.08
